{
  "source": "PubChem BioAssay AID248",
  "about": "(DTP/NCI, 2004)",
  "system": "L1210 leukemia ip in BDF1 mice, survival T/C",
  "assay": "NCI In Vivo Anticancer Drug Screen. Data for tumor model L1210 Leukemia (intraperitoneal) in B6D2F1 (BDF1) mice",
  "conditions": "T/C endpoint: mean survival time, higher T/C = longer survival",
  "note": "The list shows only some results of the screen, not a fair sample: it gathers some chemical classes. Other doses and runs of a compound may be missing. T/C gives the treated animals as a percentage of the vehicle group. Where survival is the endpoint, this PubChem deposit counts one and a half times the control or more as active, and values a quarter to a half above the control carry no call in these data; other NCI protocols may use other cut-offs. Some T/C values are marked as having no survivor count here; that says nothing about deaths at the dose. Schedule codes are those of the source, taken here to give the interval after Q, in days (D) or hours (H), and the number of doses after X. Some schedule codes hold Z or #, which are not explained here.",
  "data": [
    {"smiles": "N#CC(C#N)=Cc1ccccc1Cl", "values": [
      {"measurement": "T/C", "setting": "dose: 12.5 mg/kg/injection, schedule: Q04DX003 (ip), vehicle: saline with Tween-80", "result": "94 % of control [survivor count not shown]"},
      {"measurement": "T/C", "setting": "dose: 25.0 mg/kg/injection, schedule: Q04DX003 (ip), vehicle: saline with Tween-80", "result": "94 % of control [survivor count not shown]"},
      {"measurement": "T/C", "setting": "dose: 50.0 mg/kg/injection, schedule: Q04DX003 (ip), vehicle: saline with Tween-80", "result": "91 % of control [survivor count not shown]"}
    ]},
    {"smiles": "ClCCN(CC#Cc1ccccc1)CCCl", "values": [
      {"measurement": "T/C", "setting": "dose: 75.0 mg/kg/injection, schedule: Q01DX001 (sc), vehicle: saline", "result": "105 % of control [survivor count not shown]"},
      {"measurement": "T/C", "setting": "dose: 150.0 mg/kg/injection, schedule: Q01DX001 (sc), vehicle: saline", "result": "113 % of control [survivor count not shown]"},
      {"measurement": "T/C", "setting": "dose: 300.0 mg/kg/injection, schedule: Q01DX001 (sc), vehicle: saline", "result": "123 % of control [survivor count not shown]"}
    ]},
    {"smiles": "CN(CCBr)CCBr", "values": [
      {"measurement": "T/C", "setting": "dose: 0.01 mg/kg/injection, schedule: Q01DX015 (ip), vehicle: saline", "result": "116 % of control [survivor count not shown]"},
      {"measurement": "T/C", "setting": "dose: 0.02 mg/kg/injection, schedule: Q01DX015 (ip), vehicle: saline", "result": "132 % of control [survivor count not shown]"},
      {"measurement": "T/C", "setting": "dose: 0.04 mg/kg/injection, schedule: Q01DX015 (ip), vehicle: saline", "result": "122 % of control [survivor count not shown]"},
      {"measurement": "T/C", "setting": "dose: 0.08 mg/kg/injection, schedule: Q01DX015 (ip), vehicle: saline", "result": "143 % of control [survivor count not shown]"},
      {"measurement": "T/C", "setting": "dose: 0.08 mg/kg/injection, schedule: Q01DX Z (ip), vehicle: saline", "result": "122 % of control [survivor count not shown]"},
      {"measurement": "T/C", "setting": "dose: 0.16 mg/kg/injection, schedule: Q01DX015 (ip), vehicle: saline", "result": "135 % of control [survivor count not shown]"},
      {"measurement": "T/C", "setting": "dose: 0.16 mg/kg/injection, schedule: Q01DX Z (ip), vehicle: saline", "result": "125 % of control [survivor count not shown]"},
      {"measurement": "T/C", "setting": "dose: 0.31 mg/kg/injection, schedule: Q01DX015 (ip), vehicle: saline", "result": "120 % of control [survivor count not shown]"},
      {"measurement": "T/C", "setting": "dose: 0.31 mg/kg/injection, schedule: Q01DX Z (ip), vehicle: saline", "result": "153 % of control [survivor count not shown]"},
      {"measurement": "T/C", "setting": "dose: 0.62 mg/kg/injection, schedule: Q01DX015 (ip), vehicle: saline", "result": "88 % of control [survivor count not shown]"},
      {"measurement": "T/C", "setting": "dose: 0.62 mg/kg/injection, schedule: Q01DX Z (ip), vehicle: saline", "result": "154 % of control [survivor count not shown]"}
    ]},
    {"smiles": "OC1(C#CCN(CCCl)CCCl)CCCCC1", "values": [
      {"measurement": "T/C", "setting": "dose: 2.5 mg/kg/injection, schedule: Q01DX009 (ip), vehicle: saline", "result": "110 % of control [survivor count not shown]"},
      {"measurement": "T/C", "setting": "dose: 5.0 mg/kg/injection, schedule: Q01DX009 (ip), vehicle: saline", "result": "136 % of control [survivor count not shown]"}
    ]},
    {"smiles": "CN1CCCC(OC(=O)C(O)(c2ccccc2)C2CCCC2)C1", "note": "(stereo unspecified)", "values": [
      {"measurement": "T/C", "setting": "dose: 12.5 mg/kg/injection, schedule: Q01DX009 (ip), vehicle: saline", "result": "97 % of control [survivor count not shown]"},
      {"measurement": "T/C", "setting": "dose: 25.0 mg/kg/injection, schedule: Q01DX009 (ip), vehicle: saline", "result": "91 % of control [survivor count not shown]"},
      {"measurement": "T/C", "setting": "dose: 25.0 mg/kg/injection, schedule: Q04DX003 (ip), vehicle: saline", "result": "97 % of control [survivor count not shown]"},
      {"measurement": "T/C", "setting": "dose: 50.0 mg/kg/injection, schedule: Q01DX009 (ip), vehicle: saline", "result": "93 % of control [survivor count not shown]"},
      {"measurement": "T/C", "setting": "dose: 50.0 mg/kg/injection, schedule: Q04DX003 (ip), vehicle: saline", "result": "97 % of control [survivor count not shown]"},
      {"measurement": "T/C", "setting": "dose: 100.0 mg/kg/injection, schedule: Q04DX003 (ip), vehicle: saline", "result": "100 % of control [survivor count not shown]"},
      {"measurement": "T/C", "setting": "dose: 200.0 mg/kg/injection, schedule: Q04DX003 (ip), vehicle: saline", "result": "97 % of control [survivor count not shown]"}
    ]},
    {"smiles": "Cc1ccc(CN2C3CCCC2CC(OC(=O)C(O)(c2ccccc2)c2ccccc2)C3)cc1", "note": "(stereo unspecified)", "values": [
      {"measurement": "T/C", "setting": "dose: 100.0 mg/kg/injection, schedule: Q01DX001 (ip), vehicle: Klucel (hydroxypropylcellulose) (HPC)", "result": "98 % of control [survivor count not shown]"},
      {"measurement": "T/C", "setting": "dose: 200.0 mg/kg/injection, schedule: Q01DX001 (ip), vehicle: Klucel (hydroxypropylcellulose) (HPC)", "result": "96 % of control [survivor count not shown]"}
    ]},
    {"smiles": "CC(C)C(O)(C(=O)OC1CCNCC1)c1ccccc1", "note": "(stereo unspecified)", "values": [
      {"measurement": "T/C", "setting": "dose: 100.0 mg/kg/injection, schedule: Q01DX001 (ip), vehicle: saline", "result": "104 % of control [survivor count not shown]"},
      {"measurement": "T/C", "setting": "dose: 200.0 mg/kg/injection, schedule: Q01DX001 (ip), vehicle: saline", "result": "110 % of control [survivor count not shown]"}
    ]},
    {"smiles": "CN1CCC(OC(=O)C(O)(c2ccccc2)c2ccccc2)CC1", "values": [
      {"measurement": "T/C", "setting": "dose: 20.0 mg/kg/injection, schedule: Q01DX009 (ip), vehicle: saline", "result": "95 % of control [survivor count not shown]"},
      {"measurement": "T/C", "setting": "dose: 20.0 mg/kg/injection, schedule: Q04DX003 (ip), vehicle: saline", "result": "100 % of control [survivor count not shown]"},
      {"measurement": "T/C", "setting": "dose: 40.0 mg/kg/injection, schedule: Q01DX009 (ip), vehicle: saline", "result": "95 % of control [survivor count not shown]"},
      {"measurement": "T/C", "setting": "dose: 40.0 mg/kg/injection, schedule: Q04DX003 (ip), vehicle: saline", "result": "98 % of control [survivor count not shown]"},
      {"measurement": "T/C", "setting": "dose: 80.0 mg/kg/injection, schedule: Q01DX009 (ip), vehicle: saline", "result": "103 % of control [survivor count not shown]"},
      {"measurement": "T/C", "setting": "dose: 80.0 mg/kg/injection, schedule: Q04DX003 (ip), vehicle: saline", "result": "102 % of control [survivor count not shown]"}
    ]}
  ]
}
